± gives the standard deviation of the averaged measurements. The list shows a part of the results, in another mix than the full data. This is one part of the list.
Legend:
[1] = compound: Nc1nc2c(ncn2[C@@H]2O[C@H](COP(=O)(O)OP(=O)(O)OP(=O)(O)O)[C@@H](O)[C@H]2O)c(=O)[nH]1 [guanosine triphosphate]; assay: NP40-soluble protein abundance relative to vehicle (solubility fold change) (ratio); higher = more soluble protein in presence of GTP
In short: (§1)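 Across three independent experiments, values are fold changes against the detergent-processed vehicle for each replicate, based on vsn-normalised intensities. The samples were Jurkat crude lysate treated with eight concentrations (0.1 to 10 mM) for 10 min at room temperature and then 3 min at 37 °C. Lysate was solubilised with 0.8% NP40 and benzonase, ultracentrifuged, and the supernatant analysed by TMT-labelled LC-MS/MS.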

Amino acid sequences for entries named in this document (tags omitted). A change or cut given only in a name is not applied to a line headed by its entry.
UniProt Q9C0A0: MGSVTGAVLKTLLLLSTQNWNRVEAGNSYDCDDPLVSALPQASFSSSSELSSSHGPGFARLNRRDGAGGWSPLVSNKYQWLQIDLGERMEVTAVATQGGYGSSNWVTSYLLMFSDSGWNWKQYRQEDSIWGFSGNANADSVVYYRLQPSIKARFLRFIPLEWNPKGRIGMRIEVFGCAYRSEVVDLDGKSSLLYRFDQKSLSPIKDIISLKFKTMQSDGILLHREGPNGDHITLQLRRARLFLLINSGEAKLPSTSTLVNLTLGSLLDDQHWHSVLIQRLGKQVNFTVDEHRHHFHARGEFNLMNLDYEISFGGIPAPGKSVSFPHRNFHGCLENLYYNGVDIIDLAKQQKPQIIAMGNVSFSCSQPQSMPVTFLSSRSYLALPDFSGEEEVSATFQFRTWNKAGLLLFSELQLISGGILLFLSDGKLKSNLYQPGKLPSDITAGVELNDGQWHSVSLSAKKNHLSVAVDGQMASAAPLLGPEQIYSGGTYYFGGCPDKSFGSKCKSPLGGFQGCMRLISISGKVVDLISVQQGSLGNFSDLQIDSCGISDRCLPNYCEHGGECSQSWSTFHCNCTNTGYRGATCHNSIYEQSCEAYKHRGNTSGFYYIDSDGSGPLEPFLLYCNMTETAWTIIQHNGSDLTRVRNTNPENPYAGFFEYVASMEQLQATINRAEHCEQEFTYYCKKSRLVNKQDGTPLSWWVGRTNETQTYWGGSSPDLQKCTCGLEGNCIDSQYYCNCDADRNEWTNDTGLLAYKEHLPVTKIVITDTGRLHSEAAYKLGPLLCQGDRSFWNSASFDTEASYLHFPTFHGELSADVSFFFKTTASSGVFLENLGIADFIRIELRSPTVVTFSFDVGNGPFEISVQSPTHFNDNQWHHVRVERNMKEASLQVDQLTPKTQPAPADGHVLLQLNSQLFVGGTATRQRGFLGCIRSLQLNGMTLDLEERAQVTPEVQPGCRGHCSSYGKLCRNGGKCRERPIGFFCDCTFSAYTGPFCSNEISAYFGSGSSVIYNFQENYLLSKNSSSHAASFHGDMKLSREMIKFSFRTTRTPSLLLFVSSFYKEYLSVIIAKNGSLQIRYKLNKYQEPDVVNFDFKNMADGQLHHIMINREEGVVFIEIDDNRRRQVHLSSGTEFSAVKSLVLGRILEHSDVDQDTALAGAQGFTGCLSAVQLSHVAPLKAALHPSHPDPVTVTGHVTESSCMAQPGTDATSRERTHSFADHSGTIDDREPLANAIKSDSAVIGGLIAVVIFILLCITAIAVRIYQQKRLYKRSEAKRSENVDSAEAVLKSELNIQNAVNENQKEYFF
UniProt Q92504: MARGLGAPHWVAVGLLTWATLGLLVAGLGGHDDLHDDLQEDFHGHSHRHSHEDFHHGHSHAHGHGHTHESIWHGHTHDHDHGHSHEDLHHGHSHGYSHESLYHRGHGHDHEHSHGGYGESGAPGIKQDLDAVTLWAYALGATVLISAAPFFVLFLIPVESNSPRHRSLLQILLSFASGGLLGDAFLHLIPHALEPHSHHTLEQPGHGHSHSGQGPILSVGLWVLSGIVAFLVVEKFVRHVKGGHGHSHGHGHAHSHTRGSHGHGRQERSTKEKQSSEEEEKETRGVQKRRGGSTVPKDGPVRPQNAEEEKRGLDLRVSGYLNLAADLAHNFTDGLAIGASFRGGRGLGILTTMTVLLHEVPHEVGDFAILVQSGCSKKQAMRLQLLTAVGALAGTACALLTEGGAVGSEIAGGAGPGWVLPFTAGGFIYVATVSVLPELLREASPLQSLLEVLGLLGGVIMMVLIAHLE
UniProt O43617, whole entry: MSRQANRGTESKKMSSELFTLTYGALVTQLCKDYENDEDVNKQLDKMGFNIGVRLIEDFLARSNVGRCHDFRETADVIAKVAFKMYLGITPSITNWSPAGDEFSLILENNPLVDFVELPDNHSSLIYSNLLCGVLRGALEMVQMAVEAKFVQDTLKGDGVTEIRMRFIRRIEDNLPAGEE
UniProt O60333: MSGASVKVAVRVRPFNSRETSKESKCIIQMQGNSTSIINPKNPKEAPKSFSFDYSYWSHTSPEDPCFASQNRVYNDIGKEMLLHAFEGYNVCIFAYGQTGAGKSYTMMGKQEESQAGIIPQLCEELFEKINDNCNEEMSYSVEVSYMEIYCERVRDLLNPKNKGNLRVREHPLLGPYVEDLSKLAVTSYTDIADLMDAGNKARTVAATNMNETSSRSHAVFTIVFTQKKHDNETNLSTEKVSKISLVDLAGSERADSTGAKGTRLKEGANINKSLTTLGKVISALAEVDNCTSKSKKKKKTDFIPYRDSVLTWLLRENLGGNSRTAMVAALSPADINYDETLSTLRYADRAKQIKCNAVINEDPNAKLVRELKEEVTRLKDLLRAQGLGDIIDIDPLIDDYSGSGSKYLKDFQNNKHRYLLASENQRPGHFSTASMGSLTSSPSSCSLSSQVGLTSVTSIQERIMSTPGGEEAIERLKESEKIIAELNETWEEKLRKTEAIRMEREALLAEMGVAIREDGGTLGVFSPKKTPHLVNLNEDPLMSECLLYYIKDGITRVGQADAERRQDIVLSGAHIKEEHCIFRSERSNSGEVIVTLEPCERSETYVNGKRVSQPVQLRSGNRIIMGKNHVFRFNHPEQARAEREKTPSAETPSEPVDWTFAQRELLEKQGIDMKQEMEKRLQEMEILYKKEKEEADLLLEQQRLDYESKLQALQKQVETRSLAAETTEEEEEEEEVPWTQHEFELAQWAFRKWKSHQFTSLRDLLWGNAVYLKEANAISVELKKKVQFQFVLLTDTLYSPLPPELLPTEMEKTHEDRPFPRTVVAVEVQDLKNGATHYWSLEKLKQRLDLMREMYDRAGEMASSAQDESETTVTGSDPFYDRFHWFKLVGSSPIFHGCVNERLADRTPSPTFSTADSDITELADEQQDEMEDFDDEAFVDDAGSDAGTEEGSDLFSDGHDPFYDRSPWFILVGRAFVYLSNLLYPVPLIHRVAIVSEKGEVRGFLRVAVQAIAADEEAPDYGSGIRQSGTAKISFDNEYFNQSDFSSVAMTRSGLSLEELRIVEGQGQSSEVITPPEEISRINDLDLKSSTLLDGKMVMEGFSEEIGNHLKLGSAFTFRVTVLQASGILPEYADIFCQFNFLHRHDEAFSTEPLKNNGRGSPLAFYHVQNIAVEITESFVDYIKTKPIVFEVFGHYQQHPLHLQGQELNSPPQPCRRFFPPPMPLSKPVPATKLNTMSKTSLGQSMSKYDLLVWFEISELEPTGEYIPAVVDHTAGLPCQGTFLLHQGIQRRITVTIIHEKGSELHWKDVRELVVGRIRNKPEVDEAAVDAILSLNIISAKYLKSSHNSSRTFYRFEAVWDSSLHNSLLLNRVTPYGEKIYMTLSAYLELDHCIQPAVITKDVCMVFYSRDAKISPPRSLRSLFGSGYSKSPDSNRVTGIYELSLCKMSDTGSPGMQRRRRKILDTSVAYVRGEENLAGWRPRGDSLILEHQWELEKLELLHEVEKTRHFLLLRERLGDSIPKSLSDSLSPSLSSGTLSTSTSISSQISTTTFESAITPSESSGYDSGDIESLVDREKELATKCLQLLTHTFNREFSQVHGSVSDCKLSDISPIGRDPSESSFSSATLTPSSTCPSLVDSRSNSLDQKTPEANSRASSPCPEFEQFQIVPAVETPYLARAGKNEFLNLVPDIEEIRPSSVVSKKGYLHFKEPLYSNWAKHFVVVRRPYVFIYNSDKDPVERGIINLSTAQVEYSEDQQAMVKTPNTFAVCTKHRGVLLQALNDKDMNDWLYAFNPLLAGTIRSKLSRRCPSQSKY
UniProt O60841: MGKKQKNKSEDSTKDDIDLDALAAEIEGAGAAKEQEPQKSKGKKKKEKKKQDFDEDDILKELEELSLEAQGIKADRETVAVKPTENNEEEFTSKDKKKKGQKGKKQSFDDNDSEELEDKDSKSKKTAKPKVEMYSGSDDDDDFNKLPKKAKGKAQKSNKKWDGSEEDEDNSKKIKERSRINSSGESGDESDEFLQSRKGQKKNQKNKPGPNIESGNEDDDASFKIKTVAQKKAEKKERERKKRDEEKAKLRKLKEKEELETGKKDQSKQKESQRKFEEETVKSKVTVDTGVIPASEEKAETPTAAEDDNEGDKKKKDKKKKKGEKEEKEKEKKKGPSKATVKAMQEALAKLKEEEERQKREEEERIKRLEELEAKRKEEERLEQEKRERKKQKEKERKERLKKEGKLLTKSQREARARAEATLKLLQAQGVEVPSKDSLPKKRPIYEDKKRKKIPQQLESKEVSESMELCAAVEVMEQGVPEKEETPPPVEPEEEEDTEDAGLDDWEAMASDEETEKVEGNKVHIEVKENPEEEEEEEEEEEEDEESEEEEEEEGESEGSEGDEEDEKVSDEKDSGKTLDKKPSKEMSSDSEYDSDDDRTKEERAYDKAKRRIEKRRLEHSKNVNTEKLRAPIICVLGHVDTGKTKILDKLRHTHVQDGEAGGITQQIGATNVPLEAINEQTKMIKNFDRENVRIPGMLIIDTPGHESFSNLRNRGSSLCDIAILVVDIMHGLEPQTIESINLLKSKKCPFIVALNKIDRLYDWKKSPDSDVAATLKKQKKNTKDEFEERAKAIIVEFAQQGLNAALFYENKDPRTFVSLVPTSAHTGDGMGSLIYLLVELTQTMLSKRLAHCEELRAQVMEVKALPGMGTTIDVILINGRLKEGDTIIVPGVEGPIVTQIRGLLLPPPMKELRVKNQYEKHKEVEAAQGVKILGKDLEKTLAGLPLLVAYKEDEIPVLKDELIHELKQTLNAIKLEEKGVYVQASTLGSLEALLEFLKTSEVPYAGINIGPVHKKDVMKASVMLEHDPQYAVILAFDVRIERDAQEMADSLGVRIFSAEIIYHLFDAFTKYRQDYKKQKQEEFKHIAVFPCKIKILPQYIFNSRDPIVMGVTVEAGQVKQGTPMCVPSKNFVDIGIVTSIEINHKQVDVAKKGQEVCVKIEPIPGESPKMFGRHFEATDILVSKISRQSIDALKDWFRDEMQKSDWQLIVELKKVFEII
UniProt Q9H0U3: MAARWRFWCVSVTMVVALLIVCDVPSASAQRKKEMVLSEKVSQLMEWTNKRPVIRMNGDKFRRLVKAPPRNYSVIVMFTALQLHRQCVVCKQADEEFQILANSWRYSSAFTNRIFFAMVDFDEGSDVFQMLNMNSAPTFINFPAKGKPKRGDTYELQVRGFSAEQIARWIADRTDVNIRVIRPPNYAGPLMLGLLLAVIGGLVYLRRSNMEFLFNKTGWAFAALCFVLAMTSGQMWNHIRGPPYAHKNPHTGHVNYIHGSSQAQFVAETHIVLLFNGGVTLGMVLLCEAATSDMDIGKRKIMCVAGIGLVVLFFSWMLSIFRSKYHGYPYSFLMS
UniProt P28715: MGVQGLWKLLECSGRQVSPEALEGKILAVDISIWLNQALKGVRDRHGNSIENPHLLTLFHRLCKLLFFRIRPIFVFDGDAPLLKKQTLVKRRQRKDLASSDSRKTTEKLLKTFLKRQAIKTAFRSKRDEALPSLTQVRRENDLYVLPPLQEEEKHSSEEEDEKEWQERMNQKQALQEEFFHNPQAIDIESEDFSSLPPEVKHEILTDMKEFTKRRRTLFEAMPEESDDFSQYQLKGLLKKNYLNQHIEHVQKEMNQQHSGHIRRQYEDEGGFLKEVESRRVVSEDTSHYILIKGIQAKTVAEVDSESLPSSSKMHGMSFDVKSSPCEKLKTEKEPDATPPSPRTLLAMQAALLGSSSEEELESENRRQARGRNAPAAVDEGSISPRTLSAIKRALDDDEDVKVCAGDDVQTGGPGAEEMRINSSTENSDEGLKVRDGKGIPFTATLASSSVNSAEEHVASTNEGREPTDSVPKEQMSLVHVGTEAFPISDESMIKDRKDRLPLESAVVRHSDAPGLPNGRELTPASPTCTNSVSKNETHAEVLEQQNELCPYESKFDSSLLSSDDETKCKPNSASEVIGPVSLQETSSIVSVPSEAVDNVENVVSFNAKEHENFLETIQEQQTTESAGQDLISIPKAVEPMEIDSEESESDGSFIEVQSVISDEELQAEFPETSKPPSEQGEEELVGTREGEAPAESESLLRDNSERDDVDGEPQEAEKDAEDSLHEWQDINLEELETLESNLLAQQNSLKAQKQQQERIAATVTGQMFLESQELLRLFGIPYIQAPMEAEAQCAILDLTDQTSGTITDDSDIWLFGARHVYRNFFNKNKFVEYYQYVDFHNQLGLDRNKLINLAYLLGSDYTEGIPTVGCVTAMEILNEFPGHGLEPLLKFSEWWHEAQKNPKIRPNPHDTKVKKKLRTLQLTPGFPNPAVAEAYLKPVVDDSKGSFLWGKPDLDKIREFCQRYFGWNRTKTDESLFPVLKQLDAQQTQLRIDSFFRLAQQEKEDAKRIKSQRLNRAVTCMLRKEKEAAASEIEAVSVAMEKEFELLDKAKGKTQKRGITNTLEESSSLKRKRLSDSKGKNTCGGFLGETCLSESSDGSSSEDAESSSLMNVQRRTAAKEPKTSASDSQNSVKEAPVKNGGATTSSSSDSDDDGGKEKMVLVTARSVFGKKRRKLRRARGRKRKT

[2] = compound: Nc1ncnc2c1ncn2[C@@H]1O[C@H](COP(=O)(O)OP(=O)(O)OP(=O)(O)O)[C@@H](O)[C@H]1O [adenosine triphosphate]; assay: NP40-soluble protein abundance relative to vehicle (solubility fold change) (ratio); higher = more soluble protein in presence of ATP
In short: as §1

Target	NP40-soluble protein abundance ([1]; concentration: 0.1mM)	NP40-soluble protein abundance ([1]; concentration: 0.5mM)	NP40-soluble protein abundance ([1]; concentration: 1mM)	NP40-soluble protein abundance ([1]; concentration: 2mM)	NP40-soluble protein abundance ([1]; concentration: 4mM)	NP40-soluble protein abundance ([1]; concentration: 6mM)	NP40-soluble protein abundance ([1]; concentration: 8mM)	NP40-soluble protein abundance ([1]; concentration: 10mM)	NP40-soluble protein abundance ([2]; concentration: 1mM)	NP40-soluble protein abundance ([2]; concentration: 2mM)	NP40-soluble protein abundance ([2]; concentration: 4mM)	NP40-soluble protein abundance ([2]; concentration: 6mM)	NP40-soluble protein abundance ([2]; concentration: 8mM)	NP40-soluble protein abundance ([2]; concentration: 10mM)
A0A087WUB9|Q8WYA6 (UniProt Q8WYA6)	1.02 ± 0.014	0.978 ± 0.02	1.02 ± 0.029	0.9973 ± 0.0034	1.06 ± 0.025	1.06 ± 0.021	1.1 ± 0.0082	1.09 ± 0.018	–	–	–	–	–	–
A0A087WUC6|E9PI68 and related entries (UniProt Q15005)	0.955 ± 0.026	0.955 ± 0.018	0.899 ± 0.025	0.882 ± 0.05	0.858 ± 0.041	0.881 ± 0.045	0.859 ± 0.055	0.843 ± 0.061	–	–	–	–	–	–
SPIN1 (UniProt Q9Y657)	–	–	–	–	–	–	–	–	1.13 ± 0.065	1.16 ± 0.054	1.21 ± 0.046	1.27 ± 0.013	1.22 ± 0.055	1.25 ± 0.044
A0A075B7F8|A8CG34 (UniProt A8CG34)	0.98 ± 0.0065	0.904 ± 0.092	0.967 ± 0.042	0.922 ± 0.081	1.22 ± 0.056	1.24 ± 0.18	1.28 ± 0.095	1.46 ± 0.25	–	–	–	–	–	–
A0A087WTA1|A0A0A0MR20|E9PDN6 and related entries (UniProt Q9C0A0)	1.1 ± 0.18	0.805 ± 0.085	1.01 ± 0.098	0.855 ± 0.014	1.2 ± 0.068	0.835 ± 0.023	1.23 ± 0.23	0.877 ± 0.11	–	–	–	–	–	–
A0A087WU64|A6NMQ1 and related entries (UniProt P09884)	1.06 ± 0.025	1.07 ± 0.035	1.01 ± 0.047	1.02 ± 0.057	1.01 ± 0.033	0.994 ± 0.028	1.01 ± 0.051	0.973 ± 0.029	–	–	–	–	–	–
A0A087WTX2|Q92504 and related entries (UniProt Q92504)	0.973 ± 0.023	1.04 ± 0.059	0.991 ± 0.045	0.983 ± 0.044	0.996 ± 0.018	0.991 ± 0.063	0.99 ± 0.01	0.996 ± 0.032	–	–	–	–	–	–
A0A087WWM0|O43617 and related entries (UniProt O43617)	0.927 ± 0.14	0.89 ± 0.11	0.928 ± 0.12	0.948 ± 0.11	0.925 ± 0.14	0.946 ± 0.087	0.82 ± 0.16	0.911 ± 0.11	–	–	–	–	–	–
A0A087WWA3|O60333 and related entries (UniProt Q4R9M9+O60333)	1.11 ± 0.085	1.09 ± 0.15	1.1 ± 0.17	1.03 ± 0.093	1.04 ± 0.092	0.99 ± 0.1	1.05 ± 0.13	0.965 ± 0.11	–	–	–	–	–	–
A0A087WUT6|O60841 (UniProt O60841)	0.959 ± 0.057	0.96 ± 0.071	0.95 ± 0.069	0.9 ± 0.091	0.914 ± 0.073	0.929 ± 0.095	0.969 ± 0.063	0.924 ± 0.092	–	–	–	–	–	–
A0A087WVP4|A0A087X1R1|P53814 and related entries (UniProt P53814)	1.05 ± 0.19	0.953 ± 0.084	1.05 ± 0.037	1.13 ± 0.016	1.15 ± 0.063	1.15 ± 0.16	1.119 ± 0.0095	0.979 ± 0.03	–	–	–	–	–	–
A0A075B716|H0YN88 and related entries (UniProt P08708)	0.994 ± 0.11	0.983 ± 0.12	1.07 ± 0.23	1.04 ± 0.31	0.939 ± 0.32	0.866 ± 0.33	0.77 ± 0.26	0.844 ± 0.3	–	–	–	–	–	–
A0A087WTT6|P62273 and related entries (UniProt P62273)	0.92 ± 0.14	0.977 ± 0.14	1.16 ± 0.29	1.1 ± 0.19	0.953 ± 0.29	0.957 ± 0.27	0.663 ± 0.15	0.939 ± 0.29	–	–	–	–	–	–
A0A075B6F9|M0R3B2 and related entries (UniProt Q9Y314)	0.979 ± 0.031	0.954 ± 0.029	0.899 ± 0.068	0.913 ± 0.055	0.9 ± 0.06	0.944 ± 0.074	0.938 ± 0.044	0.918 ± 0.066	–	–	–	–	–	–
A0A087WWP4|Q96T37 and related entries (UniProt Q96T37)	1 ± 0.044	0.989 ± 0.033	1.01 ± 0.053	1.03 ± 0.048	1.04 ± 0.046	1.06 ± 0.046	1.07 ± 0.059	1.08 ± 0.049	–	–	–	–	–	–
A0A087WTT2|Q5JWB9 and related entries (UniProt Q96A57)	0.923 ± 0.011	0.971 ± 0.045	0.846 ± 0.028	0.725 ± 0.078	0.686 ± 0.09	0.703 ± 0.094	0.655 ± 0.13	0.703 ± 0.076	–	–	–	–	–	–
A0A087WT30|Q8N5I9 (UniProt Q8N5I9)	0.984 ± 0.045	1.12 ± 0.12	1.5 ± 0.091	1.4 ± 0.037	1.4 ± 0.025	1.43 ± 0.076	1.44 ± 0.057	1.48 ± 0.046	–	–	–	–	–	–
A0A087WTW5|Q9UKL3 (UniProt Q9UKL3)	1.02 ± 0.082	1.02 ± 0.06	1.06 ± 0.052	1.05 ± 0.034	1.05 ± 0.11	1.03 ± 0.049	1.13 ± 0.069	1.06 ± 0.11	–	–	–	–	–	–
A0A087WWS1|Q96FV9 (UniProt Q96FV9)	1.1 ± 0.016	1.24 ± 0.086	1.41 ± 0.19	1.76 ± 0.41	2.08 ± 0.62	2.26 ± 0.76	2.37 ± 0.83	2.4 ± 0.91	–	–	–	–	–	–
A0A087WVN8|Q13043 (UniProt Q13043)	0.95 ± 0.053	0.953 ± 0.058	0.924 ± 0.073	0.887 ± 0.07	0.882 ± 0.068	0.891 ± 0.069	0.885 ± 0.064	0.866 ± 0.06	–	–	–	–	–	–
A0A087WUS5|H0YBT0 and related entries (UniProt P01106)	0.9543 ± 0.0078	0.981 ± 0.13	1.03 ± 0.056	0.973 ± 0.032	1.1 ± 0.15	1.11 ± 0.068	0.967 ± 0.047	0.991 ± 0.021	–	–	–	–	–	–
A0A087WUL0|Q3LXA3 (UniProt Q3LXA3)	0.988 ± 0.11	0.963 ± 0.11	0.978 ± 0.14	0.928 ± 0.12	0.948 ± 0.11	0.96 ± 0.16	0.96 ± 0.1	0.951 ± 0.097	–	–	–	–	–	–
A0A087WUZ9|H7BZR7 and related entries (UniProt Q16760)	0.988 ± 0.026	0.993 ± 0.061	0.949 ± 0.036	0.993 ± 0.062	1.01 ± 0.081	0.911 ± 0.12	1 ± 0.017	0.953 ± 0.071	–	–	–	–	–	–
A0A075B7C0|A0A0C4DGQ5|K7EIV0 and related entries (UniProt P04632)	0.946 ± 0.02	0.932 ± 0.089	0.944 ± 0.054	0.89 ± 0.045	0.875 ± 0.11	0.882 ± 0.043	0.844 ± 0.11	0.868 ± 0.071	–	–	–	–	–	–
A0A087WU53|Q9H0U3 (UniProt Q9H0U3)	1 ± 0.06	0.984 ± 0.048	0.914 ± 0.034	0.945 ± 0.069	0.963 ± 0.073	0.941 ± 0.088	0.947 ± 0.081	0.959 ± 0.036	–	–	–	–	–	–
A0A087WUH0|P28715 (UniProt P28715)	1.06 ± 0.018	1.04 ± 0.017	1.052 ± 0.0099	1.04 ± 0.038	1.05 ± 0.027	1.04 ± 0.019	1.08 ± 0.075	1.05 ± 0.039	–	–	–	–	–	–
A0A087WUI6|Q8WXW3 (UniProt Q8WXW3)	1.06 ± 0.046	0.885 ± 0.045	1.034 ± 0.0025	1.005 ± 0.01	0.942 ± 0.061	0.954 ± 0.064	0.932 ± 0.063	0.983 ± 0.013	–	–	–	–	–	–

Already shown: an excerpt of the list.
Target	NP40-soluble protein abundance ([1]; concentration: 0.1mM)	NP40-soluble protein abundance ([1]; concentration: 0.5mM)	NP40-soluble protein abundance ([1]; concentration: 1mM)	NP40-soluble protein abundance ([1]; concentration: 2mM)	NP40-soluble protein abundance ([1]; concentration: 4mM)	NP40-soluble protein abundance ([1]; concentration: 6mM)	NP40-soluble protein abundance ([1]; concentration: 8mM)	NP40-soluble protein abundance ([1]; concentration: 10mM)	NP40-soluble protein abundance ([2]; concentration: 1mM)	NP40-soluble protein abundance ([2]; concentration: 2mM)	NP40-soluble protein abundance ([2]; concentration: 4mM)	NP40-soluble protein abundance ([2]; concentration: 6mM)	NP40-soluble protein abundance ([2]; concentration: 8mM)	NP40-soluble protein abundance ([2]; concentration: 10mM)
A0A087WU64|A6NMQ1 and related entries (UniProt P09884)	1.06 ± 0.025	1.07 ± 0.035	1.01 ± 0.047	1.02 ± 0.057	1.01 ± 0.033	0.994 ± 0.028	1.01 ± 0.051	0.973 ± 0.029	–	–	–	–	–	–
A0A087WTX2|Q92504 and related entries (UniProt Q92504)	0.973 ± 0.023	1.04 ± 0.059	0.991 ± 0.045	0.983 ± 0.044	0.996 ± 0.018	0.991 ± 0.063	0.99 ± 0.01	0.996 ± 0.032	–	–	–	–	–	–
A0A087WWM0|O43617 and related entries (UniProt O43617)	0.927 ± 0.14	0.89 ± 0.11	0.928 ± 0.12	0.948 ± 0.11	0.925 ± 0.14	0.946 ± 0.087	0.82 ± 0.16	0.911 ± 0.11	–	–	–	–	–	–
A0A087WWA3|O60333 and related entries (UniProt Q4R9M9+O60333)	1.11 ± 0.085	1.09 ± 0.15	1.1 ± 0.17	1.03 ± 0.093	1.04 ± 0.092	0.99 ± 0.1	1.05 ± 0.13	0.965 ± 0.11	–	–	–	–	–	–
